According to US5082942A, “Novel derivatives of tetrahydro-2,3,6,7,1H,5H,11H-(1)benzopyrano(6,7,8,ij)quinolizinone-11 usable as markers of organic compounds for the detection of said compounds by chemiluminescence or fluorescence” (Laboratories Eurobio, priority 1988, dated 1992):

Tests used:
[1] = Detection limit in liquid chromatography with fluorimetric detection; details: for Detection Limit, Fluorescence: Table 1
[2] = Detection limit in liquid chromatography with detection by chemiluminescence (TCPO or DNPO and H2O2)

O=C(Cc1cc(=O)oc2c3c4c(cc12)CCCN4CCC3)ON1C(=O)CCC1=O [luminarine-1, tetrahydro-2,3,6,7,1H,5H, 11H(1)-benzo-pyrano(6,7,8-ij) succinimidoxycarbonylmethyl-9 quinolizinone-11]
Detection Limit, Fluorescence [1]: 380 fmol | Detection Limit, Chemiluminescence (DNPO) ([2]; Table 1): 1 fmol | Detection Limit, Chemiluminescence (TCPO) ([2]; Table 1): 2 fmol

CCCCCNC(=O)Cc1cc(=O)oc2c3c4c(cc12)CCCN4CCC3 [derivative of pentylamine and luminarine]
detection limit in liquid chromatography with fluorimetric detection ([1]; excitation 380 nm, emission high-pass filter 470 nm): 380 fmol | detection limit with detection by chemiluminescence ([2]; injected): 2 fmol

O=C1OC2(OC=C(c3ccccc3)C2=O)c2ccccc21 (stereo not shown) [Fluorescamine]
Detection Limit, Fluorescence [1]: 500 fmol | Detection Limit, Chemiluminescence (TCPO) ([2]; Table 1): 25 fmol

O=Cc1ccccc1C=O [Orthophthaladehyde]
Detection Limit, Fluorescence [1]: 2100 fmol | Detection Limit, Chemiluminescence (TCPO) ([2]; Table 1): 94 fmol

CCN(CCCCN)c1ccc2c(=O)[nH][nH]c(=O)c2c1 [Aminobutyl-ethyl isoluminol]
Detection Limit, Chemiluminescence ([2]; Table 1, neither TCPO nor DNPO stated): 20 fmol

CN(C)c1cccc2c(S(=O)(=O)Cl)cccc12 [Dansyl chloride]
Detection Limit, Fluorescence [1]: 100 fmol | Detection Limit, Chemiluminescence (DNPO) ([2]; Table 1): 5 fmol | Detection Limit, Chemiluminescence (TCPO) ([2]; Table 1): 10 fmol
